According to article PMC4634149:

Target: T1, AIP1 with N-terminal TAP tag (Arabidopsis thaliana) (UniProt Q8H0V4)
T1 sequence: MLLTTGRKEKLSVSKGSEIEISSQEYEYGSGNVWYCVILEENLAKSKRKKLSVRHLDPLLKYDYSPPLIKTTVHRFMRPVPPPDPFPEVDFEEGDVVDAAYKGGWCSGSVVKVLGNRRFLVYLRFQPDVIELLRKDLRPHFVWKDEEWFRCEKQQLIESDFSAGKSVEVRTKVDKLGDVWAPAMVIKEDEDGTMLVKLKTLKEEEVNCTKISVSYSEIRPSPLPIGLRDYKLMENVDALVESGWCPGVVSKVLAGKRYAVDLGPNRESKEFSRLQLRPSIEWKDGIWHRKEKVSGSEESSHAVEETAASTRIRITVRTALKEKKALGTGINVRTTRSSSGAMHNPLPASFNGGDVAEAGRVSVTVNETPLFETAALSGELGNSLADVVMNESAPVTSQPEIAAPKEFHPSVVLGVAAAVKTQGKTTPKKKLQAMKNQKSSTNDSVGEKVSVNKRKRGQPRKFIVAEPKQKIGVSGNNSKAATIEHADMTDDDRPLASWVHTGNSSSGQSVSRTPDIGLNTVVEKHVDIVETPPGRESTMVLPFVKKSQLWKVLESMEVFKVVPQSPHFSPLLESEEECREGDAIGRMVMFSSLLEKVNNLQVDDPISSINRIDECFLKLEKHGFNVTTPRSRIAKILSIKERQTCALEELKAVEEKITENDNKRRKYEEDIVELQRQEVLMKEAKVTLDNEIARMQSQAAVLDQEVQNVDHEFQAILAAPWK
Test: affinity purification with mass spectrometry; tandem affinity purification (protein G and streptavidin binding peptide tag) of N-terminally tagged AIP1 from Arabidopsis cell suspension cultures; three trials; background of about 40 control TAP experiments subtracted

binding: binds
B1: TPR-like superfamily protein (protein, UniProt O22714 1-491)
chain: MAMRHLSRSRDVTKRSTKKYIEEPLYNRLFKDGGTEVKVRQQLNQFLKGTKHVFKWEVGDTIKKLRNRGLYYPALKLSEVMEERGMNKTVSDQAIHLDLVAKAREITAGENYFVDLPETSKTELTYGSLLNCYCKELLTEKAEGLLNKMKELNITPSSMSYNSLMTLYTKTGETEKVPAMIQELKAENVMPDSYTYNVWMRALAATNDISGVERVIEEMNRDGRVAPDWTTYSNMASIYVDAGLSQKAEKALQELEMKNTQRDFTAYQFLITLYGRLGKLTEVYRIWRSLRLAIPKTSNVAYLNMIQVLVKLNDLPGAETLFKEWQANCSTYDIRIVNVLIGAYAQEGLIQKANELKEKAPRRGGKLNAKTWEIFMDYYVKSGDMARALECMSKAVSIGKGDGGKWLPSPETVRALMSYFEQKKDVNGAENLLEILKNGTDNIGAEIFEPLIRTYAAAGKSHPAMRRRLKMENVEVNEATKKLLDEVSQDV

These are yes or no findings as the source states them, for the method shown. Binding seen in cells or lysates may run through a third protein. A yes stands for co-enrichment or nearness to the bait. Other partners may have been found. Sequences can lack the tags named with a protein.
